# In paper PMC11163939:
# Amino acid sequences for entries named in this document (tags omitted). Residues count along the entry.
# UniProt Q9UBS4, residues 23-358: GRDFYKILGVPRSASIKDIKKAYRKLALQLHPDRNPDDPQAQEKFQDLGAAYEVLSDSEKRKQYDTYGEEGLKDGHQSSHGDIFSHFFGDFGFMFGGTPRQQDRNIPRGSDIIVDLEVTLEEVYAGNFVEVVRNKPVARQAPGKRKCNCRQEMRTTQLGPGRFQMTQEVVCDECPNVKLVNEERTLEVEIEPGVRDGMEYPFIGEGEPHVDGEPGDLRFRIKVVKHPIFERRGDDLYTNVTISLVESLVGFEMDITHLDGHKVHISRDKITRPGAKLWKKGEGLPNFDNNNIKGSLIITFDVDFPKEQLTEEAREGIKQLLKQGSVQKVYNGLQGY
# UniProt P11021, residues 19-654: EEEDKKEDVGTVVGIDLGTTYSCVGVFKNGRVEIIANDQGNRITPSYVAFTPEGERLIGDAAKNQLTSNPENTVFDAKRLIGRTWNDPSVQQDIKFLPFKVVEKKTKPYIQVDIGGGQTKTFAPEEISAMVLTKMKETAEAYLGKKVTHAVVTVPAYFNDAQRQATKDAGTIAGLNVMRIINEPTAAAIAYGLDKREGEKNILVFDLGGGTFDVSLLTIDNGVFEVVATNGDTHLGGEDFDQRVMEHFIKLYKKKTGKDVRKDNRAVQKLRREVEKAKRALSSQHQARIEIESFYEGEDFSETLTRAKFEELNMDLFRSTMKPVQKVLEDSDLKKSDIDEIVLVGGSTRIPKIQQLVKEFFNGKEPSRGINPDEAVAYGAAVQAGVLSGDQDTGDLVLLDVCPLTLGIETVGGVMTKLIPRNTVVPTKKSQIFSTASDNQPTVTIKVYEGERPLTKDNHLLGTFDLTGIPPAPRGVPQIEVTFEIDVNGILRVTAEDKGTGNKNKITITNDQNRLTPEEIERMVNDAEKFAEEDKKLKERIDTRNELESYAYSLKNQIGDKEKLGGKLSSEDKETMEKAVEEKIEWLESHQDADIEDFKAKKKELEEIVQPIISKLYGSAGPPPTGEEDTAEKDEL
# Results are given in words; binding and its absence hold for the method and conditions named. In cells and extracts the contact can be indirect. Some results given as binding are weak or reduced against the parent protein; the word gives no strength. For some assays here: Sequences can lack the tags named with a protein.
# T1: C‐terminal FLAG‐tagged human EDEM1 (ER degradation‐enhancing α‐mannosidase‐like protein 1) (human) (UniProt Q92611)
# T1 sequence: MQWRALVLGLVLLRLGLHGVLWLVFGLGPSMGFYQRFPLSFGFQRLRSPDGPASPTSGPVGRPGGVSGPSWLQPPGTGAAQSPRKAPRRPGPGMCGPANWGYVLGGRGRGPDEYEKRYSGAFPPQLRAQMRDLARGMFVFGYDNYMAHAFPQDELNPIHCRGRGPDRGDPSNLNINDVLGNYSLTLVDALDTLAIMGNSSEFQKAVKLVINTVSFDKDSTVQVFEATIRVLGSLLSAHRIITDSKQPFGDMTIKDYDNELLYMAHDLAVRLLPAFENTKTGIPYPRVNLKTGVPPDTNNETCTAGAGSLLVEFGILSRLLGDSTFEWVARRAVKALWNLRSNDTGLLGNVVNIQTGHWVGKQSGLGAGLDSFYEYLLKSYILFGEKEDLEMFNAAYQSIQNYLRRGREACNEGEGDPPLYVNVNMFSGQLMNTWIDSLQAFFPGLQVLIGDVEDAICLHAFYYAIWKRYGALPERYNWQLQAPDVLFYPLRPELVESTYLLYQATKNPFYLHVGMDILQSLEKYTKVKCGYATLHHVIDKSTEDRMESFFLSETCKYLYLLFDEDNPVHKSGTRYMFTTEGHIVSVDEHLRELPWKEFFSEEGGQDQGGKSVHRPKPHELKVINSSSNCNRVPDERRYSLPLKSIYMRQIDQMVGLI
# What was measured:
# [1] = target: myc‐tagged ERdj3 at the C‐terminus (wild type) (UniProt Q9UBS4); experiment: co-IP; Figure S8a, lanes 11 and 12, ERdj3 WT against H53Q with BiP; the method is taken from the lanes of a blot, the legend and the antibody used to precipitate were not shown
# [2] = target: T1, C‐terminal FLAG‐tagged human EDEM1 (ER degradation‐enhancing α‐mannosidase‐like protein 1) (human); experiment: co-IP; 293 EBNA cells transfected with EDEM1-FLAG and OS9-HA (Figure S7); lysis in 1% TX100, 20 mM HEPES pH 7.5, 150 mM NaCl; methods describe immunoisolation of FLAG-tagged proteins on anti-FLAG M2 agarose at 4°C for 1 h, washes with 50 mM Tris-HCl pH 7.5, 0.1% CHAPS, 150 mM NaCl, elution with 500 μM FLAG peptide, western blotting
binding [1],binding [2],Molecule
binds,–,BiP (from UniProt P11021 19-654)
–,binds,"HA‐tagged OS9 (variant 2) at the C‐terminus (protein, UniProt Q13438-2 26-612) GGVGSLNLEELSEMRYGIEILPLPVMGGQSQSSDVVIVSSKYKQRYECRLPAGAIHFQREREEETPAYQGPGIPELLSPMRDAPCLLKTKDWWTYEFCYGRHIQQYHMEDSEIKGEVLYLGYYQSAFDWDDETAKASKQHRLKRYHSQTYGNGSKCDLNGRPREAEVRFLCDEGAGISGDYIDRVDEPLSCSYVLTIRTPRLCPHPLLRPPPSAAPQAILCHPSLQPEEYMAYVQRQADSKQYGDKIIEELQDLGPQVWSETKSGVAPQKMAGASPTKDDSKDSDFWKMLNEPEDQAPGGEEVPAEEQDPSPEAADSASGAPNDFQNNVQVKVIRSPADLIRFIEELKGGTKKGKPNIGQEQPVDDAAEVPQREPEKERGDPERQREMEEEEDEDEDEDEDEDERQLLGEFEKELEGILLPSDRDRLRSEVKAGMERELENIIQETEKELDPDGLKKESERDRAMLALTSTLNKLIKRLEEKQSPELVKKHKKKRVVPKKPPPSPQPTGKIEIKIVRPWAEGTEEGARWLTDEDTRNLKEIFFNILVPGAEEAQKERQRQKELESNYRRVWGSPGGEGTGDLDEFDF"
